The source holds more than one record for some entries. The other results are left out here. An entry can have further records. The records of an entry do not match, cause unknown; dose, time, organism, isomer or construct need not be as stated for each record.
Target: human C5a receptor (C5aR) (Homo sapiens (Human), UniProt P21730)
Assay: Inhibition of C5a-C5aR binding (biotinylated human C5a, U937/C5aR cells, FACS)

Amino acid sequences for entries named in this document (tags omitted).
UniProt P21730, whole entry: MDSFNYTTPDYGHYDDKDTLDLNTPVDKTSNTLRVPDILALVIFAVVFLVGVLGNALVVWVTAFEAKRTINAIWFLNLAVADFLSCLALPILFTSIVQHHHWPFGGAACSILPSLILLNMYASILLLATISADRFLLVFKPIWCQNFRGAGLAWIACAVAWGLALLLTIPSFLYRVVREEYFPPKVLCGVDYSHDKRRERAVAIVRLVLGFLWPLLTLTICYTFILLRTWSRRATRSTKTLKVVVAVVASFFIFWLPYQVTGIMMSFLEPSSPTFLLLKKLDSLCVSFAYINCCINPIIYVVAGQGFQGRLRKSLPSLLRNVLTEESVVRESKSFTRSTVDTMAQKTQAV

Cc1ccc(NC(=O)[C@H]2C[C@H]3CN(C)C[C@H]3N(C(=O)c3c(C)cccc3F)[C@H]2c2ccc(N(C)C3CCCC3)cc2)cc1C(F)(F)F (relative stereo)
IC50: 50 nM to 500 nM and 500 nM to 2 µM

Source: patent US20240043439A1, “COMPOUNDS AS C5AR INHIBITORS” (Kira Pharmaceuticals (Suzhou) Ltd., priority 2020, published 2024)
